# Assay results: PubChem BioAssay
# Where “and” joins values, the source holds several entries; their conditions need not be identical. Equal entries are not always repeated. This is one part of the list. Shown are side measurements of this screen, not its main read-out; they come without a call. For some of these results: The list favours compounds with an active or inconclusive main result.
# Tests used:
# [1] = PubChem AID 1586; details: yeast two-hybrid polyglutamine protein interaction, reporter readout; measured here: averaged growth delta OD
# [2] = selective SMN2 exon splicing luciferase activators – cell-based, SMN2/SMN1 luciferase reporters (AID 1598); details: SMN2 vs SMN1 luciferase splicing reporter cells, at 10 µM; SMN1 luciferase ratio: measured here: SMN1 luciferase reporter average; SMN2 luciferase ratio: measured here: SMN2 luciferase reporter average, stronger effect = higher value
# [3] = rescue of PC12 cells from polyQ htt toxicity – LDH release (AID 1610); details: PC12 mutant huntingtin toxicity, final LDH at 4 uM, stronger effect = lower value
Structure (SMILES),signal change (36 h minus 0 h) [1],SMN1 luciferase ratio [2],SMN2 luciferase ratio [2],normalised LDH release [3]
CCCCCCCCCCCCCCCC[N+](C)(C)C,-0.00805,0.35,0.43,0.889
CC(=O)[O][Hg][c]1ccccc1,0.00475,0.08,0.5,0.972
COc1ccc(C(=O)N2CCCC2=O)cc1,0.178,0.89,0.88,0.908
NCCC(O)C(=O)N[C@@H]1C[C@H](N)[C@@H](O[C@H]2O[C@H](CN)[C@@H](O)[C@H](O)[C@H]2N)[C@H](OC2O[C@H](CO)[C@H](O)[C@H]2O)[C@H]1O (stereo partly drawn),0.123,0.84,0.94,0.622
CCC(=O)C(CC(C)N(C)C)(c1ccccc1)c1ccccc1 (stereo not drawn),0.096,0.84,0.89,0.98
CCC1(c2ccccc2)C(=O)NC(=O)NC1=O,0.258,0.83,1.04,1.06
COC(=O)C1=CCCN(C)C1,0.139,0.86,1,1.01
C[C@@H]1O[C@@H](O[C@H]2C[C@@H](O)[C@]3(CO)C4C(CC[C@]3(O)C2)[C@@]2(O)CC[C@H](C3=CC(=O)OC3)[C@@]2(C)C[C@H]4O)[C@H](O)[C@H](O)[C@H]1O (stereo partly drawn),0.319,0.05,0.09,1.03
NC(=O)c1cc([N+](=O)[O-])cc([N+](=O)[O-])c1,0.0975,0.87,0.85,0.954
CO[C@H]1[C@H](O)[C@@H](O[C@H]2CC[C@]3(C=O)C4CC[C@]5(C)[C@@H](C6=CC(=O)OC6)CC[C@]5(O)C4CC[C@@H]3C2)O[C@@H](C)[C@@H]1O (stereo partly drawn),0.117,0.04,0.07,0.732
Nc1ccncc1,0.216,1,0.94,1.39
Clc1ccc(C(OCCN2CCCCC2)c2ccccc2)cc1 (stereo not drawn),0.107,0.94,0.95,0.747
CC(=O)O[C@H]1C[C@H](O[C@H]2[C@@H](O)C[C@H](O[C@H]3[C@@H](O)C[C@H](O[C@H]4CC[C@@]5(C)C(CCC6C5C[C@@H](O)[C@]5(C)[C@@H](C7=CC(=O)OC7)CC[C@]65O)C4)O[C@@H]3C)O[C@@H]2C)O[C@H](C)[C@H]1O[C@@H]1O[C@H](CO)[C@@H](O)[C@H](O)[C@H]1O (stereo partly drawn),0.0715,0.04,0.07,1.07
CN1CC[C@]23c4c5ccc(O)c4O[C@H]2[C@H](O)C=CC3[C@H]1C5 (stereo partly drawn),0.311,0.8,0.93,1.03
CCC(C)C(=O)O[C@H]1[C@H](O)C2C(CN3CC(C)CCC3[C@@]2(C)O)C2C[C@]34O[C@]5(O)C(OC(=O)C(C)(O)CC)CC[C@@]3(C)C5C(OC(C)=O)[C@@H](OC(C)=O)C4[C@@]21O (stereo partly drawn),0.109,0.83,0.86,0.874
OC1CCCCC1N1CCC(c2ccccc2)CC1 (stereo not drawn),0.204,0.87,1,0.377
FC(F)(F)c1cccc(N2CCNCC2)c1,0.411,0.86,0.98,1.02
C[C@]12CCC3C(CC[C@]4(O)C[C@@H](O)CC[C@]34C=O)[C@@]1(O)CCC2C1=CC(=O)OC1 (stereo partly drawn),0.15,0.05,0.09,0.871
CN1CCc2cc3c(cc2[C@H]1[C@@H]1OC(=O)c2c1ccc1c2OCO1)OCO3,0.0388,0.84,0.84,0.998
ClC1C(Cl)C(Cl)C(Cl)C(Cl)C1Cl (stereo not drawn),0.456,0.96,0.93,0.4
c1ccc2nc(N3CCNCC3)ccc2c1,0.205,0.9,0.94,1.49
Cc1cc2c(C(C)C)c(O)c(O)c(C=O)c2c(O)c1-c1c(C)cc2c(C(C)C)c(O)c(O)c(C=O)c2c1O,0.165,0.85,0.88,1.03
O=C1CCCN1CC#CCN1CCCC1,0.178,0.89,0.86,0.603
CCCC(C)C1(CC)C(=O)NC(=O)NC1=O (stereo not drawn),0.459,0.93,0.89,0.845
CCCC(C)(COC(N)=O)COC(=O)NC(C)C (stereo not drawn),0.11,0.79,0.98,0.983
C/C=C(\C)C(=O)O[C@H]1C[C@@H](OC(C)=O)[C@@]2(C(=O)OC)CO[C@@H]3C2[C@]12CO[C@](O)(C(=O)OC)[C@H]2[C@](C)(C12O[C@@]1(C)[C@H]1C[C@@H]2OC2OC=C[C@@]21O)[C@@H]3O (stereo partly drawn),0.0945,0.92,0.89,1.02

# Full records, quoted from the list. Values in the order: signal change (36 h minus 0 h) [1] | SMN1 luciferase ratio [2] | SMN2 luciferase ratio [2] | normalised LDH release [3]
# `COc1ccc(C(=O)N2CCCC2=O)cc1` in the list: 0.178 | 0.89 | 0.88 | 0.908
# `COC(=O)C1=CCCN(C)C1` in the list: 0.139 | 0.86 | 1 | 1.01
# `NCCC(O)C(=O)N[C@@H]1C[C@H](N)[C@@H](O[C@H]2O[C@H](CN)[C@@H](O)[C@H](O)[C@H]2N)[C@H](OC2O[C@H](CO)[C@H](O)[C@H]2O)[C@H]1O` (stereo partly drawn) in the list: 0.123 | 0.84 | 0.94 | 0.622

# The results go on.

Structure (SMILES),signal change (36 h minus 0 h) [1],SMN1 luciferase ratio [2],SMN2 luciferase ratio [2],normalised LDH release [3]
O=c1ccc2cc(O[C@H]3O[C@H](CO)[C@@H](O)[C@H](O)[C@H]3O)c(O)cc2o1,0.0506,1.15,0.97,0.885
CC1=NCCc2c1[nH]c1cc(O)ccc21,0.295,0.9,0.93,0.824
CC(C)[N+](C)(CCC(C(N)=O)(c1ccccc1)c1ccccc1)C(C)C,0.0793,0.94,0.95,0.234
CN1CCc2cc3c(cc2C1O)OCO3 (stereo not drawn),0.116,0.92,1.02,1.11
O=C1CCO1,0.422,0.89,0.93,0.976
CC(=O)OC1CN2CCC1CC2 (stereo not drawn),0.219,0.91,1,0.97
CC(N)Cc1ccccc1 (stereo not drawn),0.558,1.16,1.23,0.78
C[C@H]1O[C@@H](O[C@H]2[C@@H](O)C[C@H](O[C@H]3[C@@H](O)C[C@H](O[C@H]4CC[C@]5(C)C6CC[C@]7(C)[C@@H](C8=CC(=O)OC8)CC[C@]7(O)C6CC[C@@H]5C4)O[C@@H]3C)O[C@@H]2C)C[C@H](O)[C@@H]1O (stereo partly drawn),-0.0985,0.04,0.08,1.1
C=C[C@H]1CN2CC[C@H]1C[C@@H]2[C@@H](OC(=O)OCC)c1ccnc2ccc(OC)cc12,-0.0209,0.88,0.9,0.693
O=[N+]([O-])O[C@H]1CO[C@H]2[C@@H]1OC[C@H]2O[N+](=O)[O-],0.0837,0.85,0.86,1.04
CC(C)N(CCC(C(N)=O)(c1ccccc1)c1ccccn1)C(C)C (stereo not drawn),0.145,0.92,0.88,1.14
NC(=NCCC[C@H](N)C(=O)O)N[N+](=O)[O-],0.368 and 0.31,0.92 and 0.89,0.87 and 0.97,0.861 and 1.08
CN(C)C(=S)SSC(=S)N(C)C,0.344,0.64,0.39,1.39
CCC1(CCC(C)C)C(=O)NC(=O)NC1=O,0.328,0.89,0.84,0.893
CCOC(=O)C1(c2ccccc2)CCN(C)CC1,0.495,0.9,0.83,0.914
COc1cc(CCN)cc(OC)c1OC,0.337,0.87,0.91,1.1
O=C1CN=C(c2ccccc2)c2cc(Cl)ccc2N1,0.226,0.9,0.96,0.967
O=C1CN=C(c2ccccc2Cl)c2cc([N+](=O)[O-])ccc2N1,0.438,0.85,0.9,0.867
O=C1Nc2ccc(Cl)cc2C(c2ccccc2)=NC1O (stereo not drawn),0.296,0.97,1.11,1.05
C[C@]12CCC3C(CC[C@@H]4C[C@H](O)CC[C@]34C)C1CCC2=O (stereo partly drawn),0.0926,0.92,0.93,0.782
O=c1ccc2cc(O[C@@H]3O[C@H](CO)[C@@H](O)[C@H](O)[C@H]3O)c(O)cc2o1,0.0413,1,1.03,1.33
Cc1cc(O)ccc1Cl,0.222,0.79,0.89,0.847
C=C(C)[C@@H]1[C@H]2OC(=O)[C@@H]1[C@]1(O)C[C@H]3O[C@]34C(=O)O[C@H]2[C@]14C,0.177,0.85,0.81,0.995
CN1C(=O)CN=C(c2ccccc2F)c2cc([N+](=O)[O-])ccc21,0.636,0.76,0.88,0.932
CN1C[C@H](CO)C=C2c3cccc4[nH]cc(c34)C[C@H]21,0.165,0.94,0.85,0.83
C[C@@H]1CC[C@H]2[C@@H](C)C(=O)O[C@@H]3OC4(C)CC[C@@H]1[C@]32OO4,0.0722,0.96,0.94,0.861
